Some of these results come from one statement about several compounds together.
System: Vero cells
Conditions: screening criterion for Positives, 10 μM (FIG. 8)

| SMILES | viable cell ratio [%] |
| --- | --- |
| Nc1ncnc2c1ncn2[C@H]1C(O)C(O)[C@@H](CO)[C@H]1F (stereo partly drawn) [Chemical Formula 1-1] | ≥ 70 |
| Nc1ncnc2c1ncn2[C@H]1C(O)C(O)[C@@H](CO)C1(F)F (stereo partly drawn) [Chemical Formula 1-2] | ≥ 70 |
| CNc1nc(-c2cccs2)nc2c1nc(C#Cc1ccccc1)n2[C@@H]1OCC(O)C1O (stereo partly drawn) [Chemical Formula 2] | ≥ 70 |

Reference: US20240148769A1, “PHARMACEUTICAL COMPOSITION FOR PREVENTING OR TREATING CORONAVIRUS DISEASE 19, CONTAINING CARBOCYCLIC NUCLEOSIDE DERIVATIVE” (FUTURE MEDICINE CO., LTD., priority 2021, published 2024)
